From US20050014194A1
These are yes or no findings as the source states them, for the method shown. Some entries that bind do so weakly or less than the wild type. Tags and fused reporters may be left off the sequences shown.

Target: T1, trancytosis-associated protein (TAP)/p115 from cytosol of differentiated 3T3-L1 adipocytes (UniProt Q9Z1Z0)
T1 sequence (looked up): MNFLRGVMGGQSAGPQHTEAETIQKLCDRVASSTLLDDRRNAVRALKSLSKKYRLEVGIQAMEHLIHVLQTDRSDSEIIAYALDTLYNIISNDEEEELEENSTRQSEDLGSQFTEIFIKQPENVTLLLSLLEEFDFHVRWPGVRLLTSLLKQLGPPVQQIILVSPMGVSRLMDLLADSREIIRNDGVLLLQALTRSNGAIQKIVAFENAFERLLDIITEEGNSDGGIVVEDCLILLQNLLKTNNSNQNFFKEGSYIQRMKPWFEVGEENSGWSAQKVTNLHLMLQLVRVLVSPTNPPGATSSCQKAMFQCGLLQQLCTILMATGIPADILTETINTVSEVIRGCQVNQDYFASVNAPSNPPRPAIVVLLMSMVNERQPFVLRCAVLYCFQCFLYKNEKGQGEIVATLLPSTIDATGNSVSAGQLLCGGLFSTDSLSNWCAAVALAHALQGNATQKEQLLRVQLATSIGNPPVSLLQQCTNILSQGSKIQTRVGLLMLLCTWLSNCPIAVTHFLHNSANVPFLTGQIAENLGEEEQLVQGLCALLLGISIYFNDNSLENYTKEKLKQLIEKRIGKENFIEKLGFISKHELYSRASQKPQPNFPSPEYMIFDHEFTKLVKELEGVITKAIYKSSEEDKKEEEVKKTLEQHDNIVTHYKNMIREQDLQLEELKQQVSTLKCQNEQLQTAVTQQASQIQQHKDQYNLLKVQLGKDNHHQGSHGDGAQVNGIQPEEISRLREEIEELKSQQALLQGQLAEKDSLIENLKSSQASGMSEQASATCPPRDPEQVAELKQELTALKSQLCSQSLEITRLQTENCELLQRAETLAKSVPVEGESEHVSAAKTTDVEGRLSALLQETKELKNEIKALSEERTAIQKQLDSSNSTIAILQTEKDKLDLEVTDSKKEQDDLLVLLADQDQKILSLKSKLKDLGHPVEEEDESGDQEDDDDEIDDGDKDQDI
Assay: competitive elution from the IRAP-CBD chitin bead column loaded with 3T3-L1 adipocyte cytosol

binding: binds
B1: NT-IRAP peptide (soluble N-terminus of IRAP, amino acids 1-109, cleaved from the intein-CBD fusion) (peptide)
peptide: METFTNDRLQLPRNMIENSMFEEEPDVVDLAKEPCLHPLEPDEVEYEPRGSRLLVRGLGEHEMDEDEEDYESSAKLLGMSFMNRSSGLRNSATGYRQSPDGTCSVPSAR
